# Results as given in the supplement of paper PMC11150407.
# Where a name gives a salt, the structure may show the parent alone. The campaign covered roughly 2,100 compounds. About 180 (8.6%) showed an effect of 50% or more. The list shows a part of the results.
# Test system: MOLM1 and UCSD/AML1 (averaged)
# Experiment: cell viability relative to DMSO control (POC); higher = less growth inhibition
# Conditions: 1 µM; 72 h
# Method: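 Primary viability screen in the 3q26 EVI1-high AML cell lines MOLM1 and UCSD/AML1 (1.5e3 cells/well, 384-well), compounds at 1 uM for 72 h. ATP CellTiter-Glo read-out given as percent of viable cells over DMSO control (POC), averaged over duplicates. DMSO was the negative control and 5 uM etoposide the positive control. This mapping covers the MicroSource Spectrum and Selleck anticancer libraries (drug names).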
row,Structure (SMILES),cell viability
1,CC1=C(/C=C/C(C)=C/C=C/C(C)=C/C=C/C=C(C)/C=C/C=C(C)/C=C/C2=C(C)CCCC2(C)C)C(C)(C)CCC1 [beta-CAROTENE],101%
2,CC1=CC(=O)[C@H]2C(C)(C)CCC[C@]2(C)[C@@]1(O)CCc1ccoc1,110%
3,CC(=O)OCC(=O)[C@H]1CC[C@H]2[C@@H]3CC=C4C[C@@H](O)CC[C@]4(C)[C@H]3CC[C@]12C,94.9%
4,c1ccc(CC2=NCCN2)cc1,118%
5,NCCCCC(=O)O,103%
6,CC(C)(Oc1ccc(CCNC(=O)c2ccc(Cl)cc2)cc1)C(=O)O,102%
7,OCCN1CCN(CCCN2c3ccccc3Sc3ccc(C(F)(F)F)cc32)CC1,91.3%
8,O=C(O)CCc1nc(-c2ccccc2)c(-c2ccccc2)o1,45.5%
9,Clc1ccc2c(c1)C(N1CCNCC1)=Nc1ccccc1O2,95.9%
10,CC(C)[C@@H](C)/C=C/[C@@H](C)[C@H]1CC[C@H]2C3=CC=C4C[C@@H](O)CC[C@]4(C)[C@H]3CC[C@]12C,98.1%
11,O=C(c1cc(Cc2n[nH]c(=O)c3ccccc23)ccc1F)N1CCN(C(=O)C2CC2)CC1 [Olaparib (AZD2281)],56.5%
12,O=C1c2ccccc2C(=O)C1c1ccccc1,107%
13,CCC(=O)O[C@H]1CC[C@H]2[C@@H]3CCc4cc(O)ccc4[C@H]3CC[C@]12C,95.4%
14,COc1ccc(-c2coc3cc(O)ccc3c2=O)cc1,108%
15,CS(=O)(=O)c1ccc(C(=O)Nc2ccc(Cl)c(-c3ccccn3)c2)c(Cl)c1 [Vismodegib (GDC-0449)],102%
16,CC(C)C[C@H](NC(=O)[C@H](Cc1ccccc1)NC(=O)c1cnccn1)B(O)O [Bortezomib (Velcade)],0.861%
17,NC(=O)c1ccccc1O,102%
18,CC1(C)CCC(c2ccc(Cl)cc2)=C(CN2CCN(c3ccc(C(=O)NS(=O)(=O)c4ccc(N[C@H](CCN5CCOCC5)CSc5ccccc5)c(S(=O)(=O)C(F)(F)F)c4)cc3)CC2)C1 [ABT-263 (Navitoclax)],6.23%
19,O=C(NOCC1CC1)c1ccc(F)c(F)c1Nc1ccc(I)cc1Cl,33.2%
20,Nc1nc(F)nc2c1ncn2[C@@H]1O[C@H](COP(=O)(O)O)[C@@H](O)[C@@H]1O [Fludarabine Phosphate (Fludara)],44.2%
21,CCOC(=O)N1CCC(=C2c3ccc(Cl)cc3CCc3cccnc32)CC1,104%

row,Structure (SMILES),cell viability
1,COC(=O)[C@H](c1ccccc1Cl)N1CCc2sccc2C1,101%
2,C[C@]12CCC(=O)C=C1CC[C@@H]1[C@@H]2C(=O)C[C@@]2(C)[C@H]1CC[C@]2(O)C(=O)CO,96.4%
3,CN(C)[C@@H]1C(O)=C(C(N)=O)C(=O)[C@@]2(O)C(O)=C3C(=O)c4c(O)cccc4[C@@](C)(O)[C@H]3C[C@@H]12,97.8%
4,CC(C)NCC(O)COc1cccc2ccccc12 (racemic),59.6%
5,CS(=O)(=O)c1ccc([C@@H](O)[C@@H](CF)NC(=O)C(Cl)Cl)cc1,92.8%
6,CCN(CC)CCCC(C)Nc1ccnc2cc(Cl)ccc12 (centres undefined),103%
7,CCCCCC1C(=O)CCC1CC(=O)OC (centres undefined),107%
8,CC(C)c1nc(N(C)S(C)(=O)=O)nc(-c2ccc(F)cc2)c1/C=C/[C@@H](O)C[C@@H](O)CC(=O)O,79%
9,C=C(CC)C(=O)c1ccc(OCC(=O)O)c(Cl)c1Cl,99.5%
10,Nc1ccc(S(=O)(=O)NC(=O)c2ccccc2)cc1,105%
11,Oc1ccc2c(c1)OC[C@]1(O)Cc3cc(O)c(O)cc3[C@H]21,105%
12,C=C(C)[C@@H]1CC[C@]2(C(=O)O)CC[C@]3(C)[C@H](CC[C@@H]4[C@@]5(C)CC[C@H](O)C(C)(C)[C@@H]5CC[C@]43C)[C@@H]12,92.2%
13,C1N2CN3CN1CN(C2)C3,97.5%
14,O=C(O)C1=C[C@@H](O)[C@@H](O)[C@H](O)C1,103%
15,c1ccc2c(c1)CCCC2C1=NCCN1 (centres undefined),115%
16,C=CCc1ccc(O)c(OC)c1,101%
17,OC[C@@H](O)[C@@H](O)[C@H](O)[C@H](O)CO,103%
18,CCn1cc(C(=O)O)c(=O)c2cc(F)c(N3CCNCC3)nc21,102%
19,CCCc1ncc(C[n+]2ccccc2C)c(N)n1,103%
20,CC(=O)N[C@@H](Cc1c[nH]c2ccccc12)C(=O)O,106%
21,CC(C(=O)O)c1cccc(Oc2ccccc2)c1 (centres undefined),101%

row,Structure (SMILES),cell viability
1,O=C(O)CN(CCN(CC(=O)O)CC(=O)O)CC(=O)O.[Na+].[Na+].[Na+],99.6%
2,COC(=O)C[C@H]1C(C)(C)[C@@H](O)[C@@H]2CC3=C4C=C(OC)O[C@@H](c5ccoc5)[C@]4(C)CCC3[C@@]1(C)C2=O (stereo partly drawn) [3-DEOXO-3beta-HYDROXYMEXICANOLIDE 16-ENOL ETHER],100%
3,O=C1OC(c2ccc(O)cc2)(c2ccc(O)cc2)c2ccccc21,110%
4,COc1cc(OC)c2c(=O)cc(-c3ccccc3)oc2c1,90.2%
5,CC1(C)CC[C@]2(C(=O)O)CC[C@]3(C)C(=CC[C@@H]4[C@@]5(C)CC[C@H](O)[C@@](C)(CO)[C@@H]5CC[C@]43C)[C@@H]2C1,89.4%
6,CC(C)/C(O)=C1/C(=O)O[C@@H](c2ccoc2)[C@]2(C)C(O)[C@@H](O)[C@@]34OC5(C)OC67CC(C)(C(O)[C@]6(O)[C@@H](O)[C@]3(O5)C12)[C@H](CC(=O)O)[C@]74C (some centres undefined),93.3%
7,O=C(NOC[C@H](O)CO)c1ccc(F)c(F)c1Nc1ccc(I)cc1F,49.5%
8,O=C1CC2(CCCC2)CC(=O)N1CCCCN1CCN(c2ncccn2)CC1,103%
9,CC[C@H]1OC(=O)[C@H](C)[C@@H](O[C@H]2C[C@@](C)(OC)[C@@H](O)[C@H](C)O2)[C@H](C)[C@@H](O[C@@H]2O[C@H](C)C[C@H](N(C)C)[C@H]2O)[C@](C)(O)C[C@@H](C)[C@@H]2N[C@@H](COCCOC)O[C@H]([C@H]2C)[C@]1(C)O,94.2%
10,O=c1cc[nH]c(=S)[nH]1,101%
11,CC(=O)O[C@@H]1CC2C(C)(C)C(=O)C3OC3[C@]2(C)C2CC[C@@]3(C)[C@H](c4ccoc4)OC(=O)C4OC43[C@@]21C (some centres undefined),95.3%
12,Nc1ccc(S(=O)(=O)Nc2ccnn2-c2ccccc2)cc1,107%
13,CN1CCN(CCOc2cc(OC3CCOCC3)c3c(Nc4c(Cl)ccc5c4OCO5)ncnc3c2)CC1 [Saracatinib (AZD0530)],47.7%
14,CO/N=C(\C(=O)N[C@@H]1C(=O)N2C(C(=O)O)=C(COC(N)=O)CS[C@H]12)c1ccco1,104%
15,CCC(=O)c1c(O)cc(O)cc1O,84.3%
16,CC1Cc2ccccc2N1NC(=O)c1ccc(Cl)c(S(N)(=O)=O)c1 (centres undefined),96.4%
17,CC(C)C[C@@H]1NC(=O)[C@H](CCCN)NC(=O)[C@H](C(C)C)NC(=O)[C@H](Cc2ccc(O)cc2)N[C@@H](CCC(=O)O)C(=O)N[C@@H](CC(N)=O)C(=O)[C@@H](Cc2ccccc2)NC(=O)[C@H](Cc2ccccc2)NC(=O)[C@@H]2CCCN2C(=O)[C@@H](Cc2ccccc2)NC1=O,13%
18,C[C@H](CCC(=O)O)[C@H]1CC[C@H]2[C@@H]3CC[C@@H]4C[C@H](O)CC[C@]4(C)[C@H]3C[C@H](O)[C@]12C,110%
19,COc1ccc2cc(C(C)C(=O)O)ccc2c1 (centres undefined),70.4%
20,Cc1cc(CC(=O)O)n(C)c1C(=O)c1ccc(Cl)cc1,97%
21,CCCCCCCCCCCCCCCC(=O)O[C@@H]1[C@@H](O)[C@@H](O)[C@@H]([C@H](NC(=O)[C@@H]2C[C@@H](CCC)CN2C)[C@H](C)Cl)O[C@@H]1SC,95.3%

row,Structure (SMILES),cell viability
1,O=C(O)C1=CCCNC1,111%
2,COC(=O)CC[C@@H](C)[C@H]1CC[C@H]2[C@@H]3[C@H](O)C[C@@H]4C[C@H](O)CC[C@]4(C)[C@H]3C[C@H](O)[C@]12C,95.2%
3,CC12CCC(CC1)C(C)(C)O2,89.1%
4,C[C@@H]1C[C@H]2[C@@H]3CCC4=CC(=O)C=C[C@]4(C)[C@@]3(F)[C@@H](O)C[C@]2(C)[C@@]1(O)C(=O)CO [Dexamethasone],57.3%
5,C[C@@H]1C[C@H]2[C@@H]3CCC4=CC(=O)C=C[C@]4(C)[C@@]3(F)[C@@H](O)C[C@]2(C)[C@@]1(O)C(=O)CO,73%
6,OC1(c2ccc(Cl)c(C(F)(F)F)c2)CCN(CCCC(c2ccc(F)cc2)c2ccc(F)cc2)CC1,85.5%
7,O=C(O)CCCc1ccccc1,90.8%
8,NC1=NCCN1CC(=O)O,95.6%
9,CC1(C)O[C@@H]2C[C@H]3[C@@H]4CCC5=CC(=O)C=C[C@]5(C)[C@@]4(F)[C@@H](O)C[C@]3(C)[C@]2(C(=O)CO)O1,71.1%
10,CC1(C)O[C@@H]2C[C@H]3[C@@H]4CCC5=CC(=O)C=C[C@]5(C)[C@@]4(F)[C@@H](O)C[C@]3(C)[C@]2(C(=O)CO)O1 [Triamcinolone Acetonide],70.6%
11,C1CCN2C[C@@H]3C[C@@H](CN4CCCC[C@@H]34)[C@H]2C1,99.5%
12,CC1CC(OC(=O)C(O)c2ccccc2)CC(C)(C)N1C (centres undefined),113%
13,OC[C@H]1O[C@@H](n2cnc3c(NCc4ccco4)ncnc32)[C@H](O)[C@@H]1O,5.88%
14,Cc1nnc(NS(=O)(=O)c2ccc(N)cc2)s1,103%
15,FC(F)c1nc2ccccc2n1-c1nc(N2CCOCC2)nc(N2CCOCC2)n1,26.8%
16,CCN1CCN(c2cc3c(cc2F)c(=O)c(C(=O)O)cn3C2CC2)CC1,98.3%
17,COc1cc(NS(C)(=O)=O)ccc1Nc1c2ccccc2nc2ccccc12,12.8%
18,C[C@H]1C[C@H]2[C@@H]3CCC4=CC(=O)C=C[C@]4(C)[C@@]3(F)[C@@H](O)C[C@]2(C)[C@@]1(O)C(=O)CO,69.9%
19,CCN1CCN(C(=O)N[C@@H](C(=O)N[C@@H]2C(=O)N3C(C(=O)O)=C(CSc4nnnn4C)CS[C@H]23)c2ccc(O)cc2)C(=O)C1=O,95.7%
20,"CN(C)CCOc1ccc(/C(=C(/CCCl)c2ccccc2)c2ccccc2)cc1 [Toremifene Citrate (Fareston, Acapodene)]",92.4%
21,CN(C)CCOc1ccc(/C(=C(/CCCl)c2ccccc2)c2ccccc2)cc1,85.8%

# An excerpt of these results, tab-delimited.
row	Structure (SMILES)	cell viability
7	O=C(O)CCCc1ccccc1	90.8%
8	NC1=NCCN1CC(=O)O	95.6%
9	CC1(C)O[C@@H]2C[C@H]3[C@@H]4CCC5=CC(=O)C=C[C@]5(C)[C@@]4(F)[C@@H](O)C[C@]3(C)[C@]2(C(=O)CO)O1	71.1%
10	CC1(C)O[C@@H]2C[C@H]3[C@@H]4CCC5=CC(=O)C=C[C@]5(C)[C@@]4(F)[C@@H](O)C[C@]3(C)[C@]2(C(=O)CO)O1 [Triamcinolone Acetonide]	70.6%

# For convenience, some entries already given:
row,Structure (SMILES),cell viability
11,C1CCN2C[C@@H]3C[C@@H](CN4CCCC[C@@H]34)[C@H]2C1,99.5%
12,CC1CC(OC(=O)C(O)c2ccccc2)CC(C)(C)N1C (centres undefined),113%
